Literature values, collected in US9072714B2, “Fatty acids for use as a medicament” (Lipid Pharmaceuticals ehf., priority 2008, dated 2015).
Some entries share one result that the patent states for a list of compounds.

Conditions: laxative, by class and site of action

| Structure (SMILES) | Onset of action [h] |
| --- | --- |
| OC[C@H]1O[C@@H](O[C@@H]2[C@@H](CO)OC(O)(CO)[C@H]2O)[C@H](O)[C@@H](O)[C@H]1O (mixture of isomers) [lactulose] | 0.5 to 3 |
| OC[C@@H](O)[C@@H](O)[C@H](O)[C@@H](O)CO [Sorbitol] | 0.5 to 3 |
